Measured values: PubChem BioAssay AID1347426 (Functional Genomics Laboratory (NCATS/FGL), 2020)
Among all 31,000 sequences or so, about 1,400 (4.5%) were called active.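 How the source made its calls: active means median seed-adjusted z-score above 1 or below -1; inactive means the rest.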 The list shows a part of the results.

assay: Novel Modifiers of Survival Motor Neuron (SMN) Protein: Gene Identification via Genome-wide siRNA Screen; conditions: HEK293T SMN2-luciferase reporter, siRNA knockdown, 72 h; actives lie on both sides;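 further: luminescence tracks full-length SMN protein made from the SMN2 reporter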
Method in brief: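 HEK293T cells stably expressing an SMN2 splicing/cDNA-luciferase reporter were reverse-transfected with a druggable-genome siRNA library and read by luminescence at 72 hours; hits defined by MAD score above 1.0 or below -1.0.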

Sequence	median seed-adjusted z-score
GUAUCUGUGAUAUUGAAAATT against LPAR1	inactive: 0.514
CCGACAUAUCUAUACCUGATT against SCGB2A1	inactive: 0
GGUUUGAGCUAGUCAUGGATT against CSAD	inactive: -0.0681
GUUGGAUGAUUGACUCUGATT against ERBB2	inactive: 0.158
GCAAAUACGUGUAGACCUATT against EXOSC9	inactive: -0.00796
UGUUAAGCUUCAUCAGUAUTT against MRGPRX1	inactive: -0.188
GGAUAUCAAUCGAGUACAATT against PIK3R3	active: -1.88
GAACUGCACGUGUACAACATT against HCFC1	active: 1.47
CCAUCGUUCUGGGAAUUCUTT against CD6	inactive: -0.33
CACUUAUGCUGCGAGCUGATT against OBSCN	inactive: -0.798
CGCCCUUCUCAGGAAUCUATT against SLC25A38	inactive: 0
GCUCGAGGCAAGACCUAUATT against PFKFB1	inactive: -0.561
GCUCCUCUCAGGUUACCUUTT against TBC1D22A	inactive: -0.00192
GGACAAAUUUUGGAGAGAATT against COG2	inactive: 0.791
GGAAUUAGACCUAAAUGAATT against RNF148	inactive: 0.552
GGACCUUCCCAGUACUAGUTT against CDKN1C	inactive: -0.0497
CUACCUCAGUGACAGUCAATT against SDK2	inactive: 0.908
GGACUUUCAUUAAUCACGUTT against ATP8B4	inactive: -0.00244
CCACUACUCACAAGACUCUTT against SHMT2	inactive: -0.0453
GGAAAACUCGAAAGAGUAATT against HNRNPR	inactive: 0.308
CCAUGACAUCUCUACCGAATT against RFFL	inactive: -0.437
GGUCUUUCCCGGUGCUAUATT against ZNF697	inactive: 0.0503
GCUCUGAUCAUUGAUCCAATT against BRPF1	inactive: 0

Sequence	median seed-adjusted z-score
GUCUAAGAGAAUACAAUGATT against MNAT1	inactive: -0.335
GCAUCGAAGUGGUGGAAGATT against RNF123	inactive: 0
CCCUGAAUAUACACGAGAATT against PITPNA	inactive: -0.225
GCAUCCUAGUCUCUAUCAUTT against LTC4S	inactive: 0
CUGAUUUGAUUGAAACGUATT against SCN9A	inactive: -0.581
CAAUUUCACCAACAUGUUATT against CS	inactive: -0.419
GAAUGAAAUCCGAACAGUUTT against AK1	inactive: -0.0471
GAGAUGAUUUGCACUAUAATT against ZNF45	inactive: 0.172
GAAACUCCAUGGAAACAAATT against SPOCK2	inactive: 0.967
GGACUCUUCUUUAGCUUUATT against TSPAN31	active: -1.13
GAUCCUUCAUUAUGCAACATT against OSBPL7	inactive: 0
GCCUGUUCUUUAUCAUGCUTT against SLC6A12	inactive: -0.708
CCAUCGACCUCGUCAUUGATT against MEIS2	inactive: 0.475
GAACUUAGAUGUCAGUGCATT against IL8	inactive: 0.0521
GGAGAUAGCUUUGCCUAUATT against RBM15B	inactive: -0.183
GACACUUUCUACAUCAAAATT against CRABP2	inactive: 0.0092
GAAUAGAGAUCAAAUUCCATT against CD163	inactive: 0.021
GGAUCAGCCGAGGAUGAAATT against PPP1R15A	inactive: 0.539
GCCUCCGAAUCAACCGUUATT against RABGEF1	inactive: 0.278
ACAAGACGACCUACAAUAATT against PLA2G2A	inactive: 0.809
AGUUUAUUCCCUUAUCAGATT against COPS8	inactive: 0.148
GUUUGAAUGCGGUGUAGAATT against LOC158381	inactive: 0
CAUCGGUGUCUAUACUACATT against CXCL16	inactive: 0.201

Sequence	median seed-adjusted z-score
CUCUCUUAGUGUCCUUAGATT against PCDHGC4	inactive: 0.301
GCACCAUAGACUUUCGGGATT against HPCA	inactive: 0.12
GCUACAACAUCCAGCCUAATT against STON1-GTF2A1L	inactive: 0.294
CAACCUCUAGAAUCCCGUATT against EHHADH	inactive: 0.0626
CAGCUGUAGUUCUAACUAUTT against ZNF23	inactive: -0.106
CCUUGCACCAGGCACAAAATT against CLCNKA	inactive: -0.398
GAACUGCAAGAUGAAGUUUTT against CHRNA2	inactive: -0.513
CUUGGACAAUUACAUCUAATT against SEL1L2	inactive: -0.342
GGGACGGAAUAAAUGCUCUTT against NDUFA13	inactive: -0.138
CCUACAACAAUAAAACGGATT against NEK5	inactive: 0.0403
ACUCCUCUGUGAACCUACUTT against ASIP	inactive: -0.23
CAUCAAUCAUGAGGGCCUATT against ADCY4	inactive: -0.0551
GGUCUACUUCUACUACAAUTT against UTY	inactive: -0.538
CAACGAUCGUGAAAGAAUUTT against ARF4	inactive: 0.346
UGUCAGGUAUGGGUUCGAATT against ABCG1	inactive: -0.609
CAUCCUCAGUAAAUCGAGATT against DHX29	inactive: -0.28
GCACUCAUGUCAUACUGAATT against LIPA	inactive: 0.535
GCAUUACACCACUCAGUAUTT against TMPRSS3	inactive: -0.554
UGCGAGAUGUGGUAACGAATT against TRAP1	inactive: -0.637
UAACAGGAGCUGUAUUUAATT against AQP11	inactive: -0.0455
GGCUGGUACCUGGAUGAGATT against FTCD	inactive: -0.27
GCACCGUUCAAAUACUUAUTT against PCDHA2	inactive: 0.803

Taken from above.
Value of UAACAGGAGCUGUAUUUAATT against AQP11 under median seed-adjusted z-score: inactive: -0.0455
Value of GCUACAACAUCCAGCCUAATT against STON1-GTF2A1L under median seed-adjusted z-score: inactive: 0.294
Value of CCUUGCACCAGGCACAAAATT against CLCNKA under median seed-adjusted z-score: inactive: -0.398
Value of CAACGAUCGUGAAAGAAUUTT against ARF4 under median seed-adjusted z-score: inactive: 0.346
Value of CCUACAACAAUAAAACGGATT against NEK5 under median seed-adjusted z-score: inactive: 0.0403
Value of CUUGGACAAUUACAUCUAATT against SEL1L2 under median seed-adjusted z-score: inactive: -0.342
